According to publication PMC5841781:
These are yes or no findings as the source states them, for the method shown. For some of these results: Binding seen in cells or lysates may run through a third protein. Some entries that bind do so weakly or less than the wild type. Sequences can lack the tags named with a protein. One block for each binder: values may come before it.

Key:
[1] = target: T1, BD-MED8 (full-length MED8 fused to the Gal4 DNA binding domain, pGBKT7-MED8) (Arabidopsis thaliana) (UniProt Q4V3C1); test: two-hybrid; screen with BD-MED8 (full-length MED8 on the Gal4 DNA binding domain) as bait; clones identified by prototrophy for His and Ade
T1 sequence: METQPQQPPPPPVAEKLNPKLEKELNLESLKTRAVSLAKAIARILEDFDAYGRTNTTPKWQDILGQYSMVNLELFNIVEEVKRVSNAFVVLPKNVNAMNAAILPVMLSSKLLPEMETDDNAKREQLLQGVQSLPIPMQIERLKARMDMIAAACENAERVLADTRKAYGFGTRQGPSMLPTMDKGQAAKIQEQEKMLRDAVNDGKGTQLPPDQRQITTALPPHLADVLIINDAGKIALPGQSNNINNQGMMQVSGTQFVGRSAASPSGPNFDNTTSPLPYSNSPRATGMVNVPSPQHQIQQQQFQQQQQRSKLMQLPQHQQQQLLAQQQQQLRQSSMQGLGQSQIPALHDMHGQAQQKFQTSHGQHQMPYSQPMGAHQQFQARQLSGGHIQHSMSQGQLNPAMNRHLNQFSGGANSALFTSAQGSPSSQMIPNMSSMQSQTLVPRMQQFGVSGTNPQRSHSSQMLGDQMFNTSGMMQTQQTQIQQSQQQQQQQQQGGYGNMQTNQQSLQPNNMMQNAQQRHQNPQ

[2] = target: T2, MED8-GFP (35Spro:MED8-GFP) (Arabidopsis thaliana) (UniProt Q4V3C1); test: co-IP; extracts of N. benthamiana leaves co-infiltrated with 35Spro:MED8-GFP and 35Spro:FAMA-HA; precipitated with GFP antibody-bound agarose beads, 1 h at 4°C; 50 mM Tris-HCl pH 7.5, 150 mM NaCl, 0.1% Triton X-100, 0.2% Nonidet P-40; blots with anti-HA and anti-GFP
T2 sequence: T1 sequence

[3] = target: T3, MED8-nLUC (nLUC-tagged MED8, in pCAMBIA1300-nLUC) (Arabidopsis thaliana) (UniProt Q4V3C1); test: split reporter; split-luciferase complementation (Split-LUC) by transient expression in N. benthamiana leaves; luminescence after spraying 0.5 mM luciferin
T3 sequence: T1 sequence

[4] = target: T1, BD-MED8 (full-length MED8 fused to the Gal4 DNA binding domain, pGBKT7-MED8) (Arabidopsis thaliana); test: two-hybrid; Matchmaker GAL4 system, baits in pGBKT7 and preys in pGADT7 co-transformed into S. cerevisiae AH109; growth on SD/-Ade/-His/-Leu/-Trp after 3 d at 30°C

binding [1]: binds
B1: clones encoding FAMA found in the yeast two-hybrid screen with BD-MED8 (protein, UniProt Q56YJ8 1-414)
chain: MDKDYSAPNFLGESSGGNDDNSSGMIDYMFNRNLQQQQKQSMPQQQQHQLSPSGFGATPFDKMNFSDVMQFADFGSKLALNQTRNQDDQETGIDPVYFLKFPVLNDKIEDHNQTQHLMPSHQTSQEGGECGGNIGNVFLEEKEDQDDDNDNNSVQLRFIGGEEEDRENKNVTKKEVKSKRKRARTSKTSEEVESQRMTHIAVERNRRKQMNEHLRVLRSLMPGSYVQRGDQASIIGGAIEFVRELEQLLQCLESQKRRRILGETGRDMTTTTTSSSSPITTVANQAQPLIITGNVTELEGGGGLREETAENKSCLADVEVKLLGFDAMIKILSRRRPGQLIKTIAALEDLHLSILHTNITTMEQTVLYSFNVKITSETRFTAEDIASSIQQIFSFIHANTNISGSSNLGNIVFT

binding [2]: binds
B2: FAMA-HA (35Spro:FAMA-HA) (protein, UniProt Q56YJ8 1-414)
chain: B1 chain

binding [3]: binds
B3: cLUC-FAMA (FAMA in pCAMBIA1300-cLUC) (protein, UniProt Q56YJ8 1-414)
chain: B1 chain

binding [4]: binds
B4: AD-FAMA (full-length coding sequence of FAMA in the prey vector, pGADT7-FAMA) (protein, UniProt Q56YJ8 1-414)
chain: B1 chain
